Earlier results in US20090214648A1 (priority 2008, published 2009).

[1] = oral, single dose of a diphenhydramine salt

Oral absorption (oral administration): well absorbed
Time to peak plasma concentrations [1]: 1.5 to 4 h
Time until the drug appears in plasma [1]: ≤ 15 min
Structure (SMILES): CN(C)CCOC(c1ccccc1)c1ccccc1 [Diphenhydramine, [2-(diphenylmethoxy)ethyl]dimethylamine]
